# Assay results published in paper PMC10933477.
# These are yes or no findings as the source states them, for the method shown. In cells and extracts the contact can be indirect. Some results given as binding are weak or reduced against the parent protein; the word gives no strength.
# T1: Imd (immune deficiency) (Drosophila melanogaster) (UniProt Q7K4Z4)
# T1 sequence: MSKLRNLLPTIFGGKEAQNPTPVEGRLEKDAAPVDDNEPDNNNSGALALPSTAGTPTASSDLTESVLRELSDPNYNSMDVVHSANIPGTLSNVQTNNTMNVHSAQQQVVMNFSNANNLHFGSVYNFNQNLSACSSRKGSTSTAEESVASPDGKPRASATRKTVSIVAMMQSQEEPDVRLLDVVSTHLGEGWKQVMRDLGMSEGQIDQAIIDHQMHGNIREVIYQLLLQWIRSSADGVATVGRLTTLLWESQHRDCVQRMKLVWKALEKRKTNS
# T2: dTak1 (Drosophila TGF-beta activating kinase 1) (Drosophila melanogaster) (UniProt Q9V3Q6)
# T2 sequence: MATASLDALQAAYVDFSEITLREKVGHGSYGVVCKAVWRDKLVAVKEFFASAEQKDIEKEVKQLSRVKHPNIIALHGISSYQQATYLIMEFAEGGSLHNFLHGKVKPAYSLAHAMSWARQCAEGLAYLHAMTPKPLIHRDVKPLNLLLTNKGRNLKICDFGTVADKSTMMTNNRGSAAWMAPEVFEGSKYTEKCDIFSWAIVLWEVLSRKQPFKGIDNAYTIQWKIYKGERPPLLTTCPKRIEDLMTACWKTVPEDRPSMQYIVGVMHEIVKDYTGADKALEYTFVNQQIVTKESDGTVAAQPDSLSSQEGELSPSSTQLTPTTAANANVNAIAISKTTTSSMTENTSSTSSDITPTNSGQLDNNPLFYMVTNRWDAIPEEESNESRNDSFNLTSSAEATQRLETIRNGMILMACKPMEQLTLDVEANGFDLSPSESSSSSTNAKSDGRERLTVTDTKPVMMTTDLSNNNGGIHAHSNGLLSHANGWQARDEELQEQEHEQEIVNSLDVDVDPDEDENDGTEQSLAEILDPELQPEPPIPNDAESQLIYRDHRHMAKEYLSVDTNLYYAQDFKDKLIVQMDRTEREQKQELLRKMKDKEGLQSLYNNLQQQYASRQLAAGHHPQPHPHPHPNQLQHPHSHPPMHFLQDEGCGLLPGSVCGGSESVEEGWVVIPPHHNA
# Tests used:
# [1] = target: T1, Imd (immune deficiency) (Drosophila melanogaster); test: co-IP; S2 cells transfected with expression plasmids for 48 h; lysis in 150 mM NaCl, 50 mM Tris-HCl pH 7.5, 10% glycerol, 0.5% Triton X-100, 1 mM PMSF; anti-Flag M2 or anti-Myc affinity gel, 4 °C, 4 h; washed three times with 500 mM NaCl buffer; Western blot
# [2] = target: T2, dTak1 (Drosophila TGF-beta activating kinase 1) (Drosophila melanogaster); test: as above
Binder,binding [1],binding [2]
"eIF3f1 (eukaryotic translation initiation factor 3 subunit f1), full length (protein, UniProt Q9VN50 1-280) MSALNLTVRVHPVVLFQVVDAFERRNADSHRVIGTLLGSVDKGVVEVTNCFCVPHKEHDDQVEAELSYALDMYDLNRKVNSNESVVGWWATGNDVTNHSSVIHEYYARECNNPVHLTVDTSLQGGRMGLRAYVCIQLGVPGGKSGCMFTPIPVELTSYEPETFGLKLLQKTVGVSPAHRPKTVPPMLDLAQISEASTKLQSLLDLILKYVDDVIAHKVTPDNAVGRQLLDLIHSVPHMTHEQFTQMFNANVRNLLLVITLSQLIKTQLQLNEKLTFLPTA",no binding,binds
"eIF3f1^JAMM (N-terminal JAMM domain of eIF3f1) (domain or fragment, UniProt Q9VN50 1-137) MSALNLTVRVHPVVLFQVVDAFERRNADSHRVIGTLLGSVDKGVVEVTNCFCVPHKEHDDQVEAELSYALDMYDLNRKVNSNESVVGWWATGNDVTNHSSVIHEYYARECNNPVHLTVDTSLQGGRMGLRAYVCIQL",,binds
